PMC7955884
Results are given in words; binding and its absence hold for the method and conditions named. In cells and extracts the contact can be indirect. A result given as binding can be weak or reduced; the word gives no strength. Tags and fused reporters may be left off the sequences shown.

B1: DEP1‐Myc (protein, UniProt Q67UU9 1-426)
chain: MGEEAVVMEAPRPKSPPRYPDLCGRRRMQLEVQILSREITFLKDELHFLEGAQPVSRSGCIKEINEFVGTKHDPLIPTKRRRHRSCRLFRWIGSKLCICISCLCYCCKCSPKCKRPRCLNCSCSSCCDEPCCKPNCSACCAGSCCSPDCCSCCKPNCSCCKTPSCCKPNCSCSCPSCSSCCDTSCCKPSCTCFNIFSCFKSLYSCFKIPSCFKSQCNCSSPNCCTCTLPSCSCKGCACPSCGCNGCGCPSCGCNGCGCPSCGCNGCGLPSCGCNGCGSCSCAQCKPDCGSCSTNCCSCKPSCNGCCGEQCCRCADCFSCSCPRCSSCFNIFKCSCAGCCSSLCKCPCTTQCFSCQSSCCKRQPSCCKCQSSCCEGQPSCCEGHCCSLPKPSCPECSCGCVWSCKNCTEGCRCPRCRNPCCLSGCLC
B2: DEP1‐cCFP (protein, UniProt Q67UU9 1-426)
chain: MGEEAVVMEAPRPKSPPRYPDLCGRRRMQLEVQILSREITFLKDELHFLEGAQPVSRSGCIKEINEFVGTKHDPLIPTKRRRHRSCRLFRWIGSKLCICISCLCYCCKCSPKCKRPRCLNCSCSSCCDEPCCKPNCSACCAGSCCSPDCCSCCKPNCSCCKTPSCCKPNCSCSCPSCSSCCDTSCCKPSCTCFNIFSCFKSLYSCFKIPSCFKSQCNCSSPNCCTCTLPSCSCKGCACPSCGCNGCGCPSCGCNGCGCPSCGCNGCGLPSCGCNGCGSCSCAQCKPDCGSCSTNCCSCKPSCNGCCGEQCCRCADCFSCSCPRCSSCFNIFKCSCAGCCSSLCKCPCTTQCFSCQSSCCKRQPSCCKCQSSCCEGQPSCCEGHCCSLPKPSCPECSCGCVWSCKNCTEGCRCPRCRNPCCLSGCLC

What was measured:
LPA1‐GFP (rice) = experiment: co-IP; DEP1-Myc + LPA1-GFP transfected into tobacco leaves; immunoprecipitated with anti-GFP, detected with anti-Myc
LPA1‐nYFP (rice) = experiment: split reporter; split-GFP: reconstitution of fluorescence from LPA1-nYFP + DEP1-cCFP, in the nucleus

Binder | binding (LPA1‐GFP (rice)) | binding (LPA1‐nYFP (rice))
B1 | binds | –
B2 | – | binds
